# Results published in US11945862B2, “Compositions and methods for antibody production” (ImmunoGen, Inc., priority 2017, dated 2024).
# Some entries repeat one wording, which the source may state once for all of them.
# Tested on: humanized N901 IgG1
# Test: Covalent modification of antibody after agent treatment (mass spectrometry of deglycosylated antibody)
# [1] = 1 mM agent and 0.35 ml CHO cell lysate, 3 hours, mass spectrometry
Structure (SMILES),covalent modification of antibody [1],"covalent modification of antibody (antibody incubated with coenzyme Q0, mass spectrometry)"
"O=C(O)CCCCC1CCSS1 (racemic) [lipoic acid, 1,2-dithiolane-3-pentanoic acid]",did not covalently modify the antibody,–
"O=C1c2ccccc2C(=O)c2cc(S(=O)(=O)O)ccc21 [AQS, anthraquinone-2-sulfonic acid]",did not covalently modify the antibody,–
"COC(=O)[C@@H](N)CSSC[C@H](N)C(=O)OC [CDME, L-cystine dimethyl ester]",did not covalently modify the antibody,–
"COC1=C(OC)C(=O)C(C)=CC1=O [coenzyme Q0, 2,3-dimethoxy-5-methyl-p-benzoquinone]",–,not covalently modified
